{
  "source": "patent US20250163002A1",
  "about": "“FUSED QUINONOXIME IMIDAZOLE, ONIUM DERIVATIVES THEREOF, PREPARATION AND USE THEREOF” (SHANGHAI JIAO TONG UNIVERSITY, priority 2022, published 2025)",
  "note": "Some of these results come from one statement about several compounds together.",
  "data": [
    {"system": "CFPAC-1 pancreatic cancer cells", "assay": "In vivo inhibition test of cancer cell proliferation, CFPAC-1 transplant", "set-up": "species or system Balb/c naked mouse", "conditions": "7 mg/kg, once every other three days, 7 times; gross tumor volume", "experimental": "Test method: 3×10^7 CFPAC-1 pancreatic cancer cells were transplanted to subcutaneous tissues of armpit of a Balb/c naked mouse; administration was conducted when the tumor grew to 50-100 mm^3, 100-200 mm^3, and greater than 200 mm^3; the mouse was administered once every other three days, 7 times in total, and 7 mg/kg each time. Normal saline was injected in the control group. Tumor length and diameter were measured by calipers and weight of the moue was weighed until the next day of the final administration. Gross tumor volume was calculated by the following equation:\ngross tumor volume (mm^3)=½×[short diameter (mm)]^2×long diameter (mm)", "units": {"proliferation inhibition activity / inhibition ratio": "%"}, "values": [
      {"smiles": "COCCOCCO/N=C1\\c2ccccc2C(=O)c2c1[n+](C)cn2C.[I-]", "note": "[Compound 146, (E)-4-((2-(2-methoxyethoxy)ethoxy)imino)-1,3-dimethyl-9-oxo-4,9-dihydro-1H-naphthol[2,3-d]imidazole-3-iodide]", "proliferation inhibition activity / inhibition ratio": "> 80"},
      {"smiles": "COCCOCCOCCO/N=C1\\c2ccccc2C(=O)c2c1[n+](C)cn2C", "note": "[Compound 147, (E) and (Z)-4-((2-(2-(2-methoxyethoxy)ethoxy)ethoxy)imino)-1,3-dimethyl-9-oxo-4,9-dihydro-1H-naphthol[2,3-d]imidazole-3-iodide]", "proliferation inhibition activity / inhibition ratio": "> 80"},
      {"smiles": "Cn1c[n+](C)c2c1C(=O)c1ccccc1/C2=N\\OCCOCc1ccccc1.[I-]", "note": "[Compound 145, (E)-4-((2-(benzyloxy)ethoxy)imino)-1,3-dimethyl-9-oxo-4,9-dihydro-1H-naphthol[2,3-d]imidazole-3-iodide]", "proliferation inhibition activity / inhibition ratio": "> 80"}
    ]}
  ]
}
